Data as given in PubChem BioAssay AID1671195 (Yale University, 2021)

- Purpose: 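Genes whose knockdown alters LDL uptake in liver cancer cells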 (primary screen)
- Cells: human Huh7 hepatoma cells
- Knock-down reagent: siRNA pool against human genes, 18 nM
- Duration: about 2 to 2.5 days of knockdown, then 8 h LDL uptake
- Conditions: DiI-labelled LDL at 30 µg/ml for 8 h, in lipoprotein-deficient serum medium
- Detection: 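Per-cell DiI-LDL intensity by automated imaging; well means scaled to the plate median and given as a robust z-score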
- Direction: robust z-score: higher = more LDL uptake after knockdown
- Call rule: 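Active when two or more replicates show a robust z-score above 2 or below -2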
In all, the deposit lists about 22,000 reagents; this is a random part of them. Over the whole deposit, about 1,510 (6.9%) were called active. 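Active includes knockdowns raising or lowering LDL uptake; positive z-scores mean more uptake, negative mean less.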 Entries without a mark were called inactive. No sequences are given here.

robust z-score, replicate 1 | robust z-score, replicate 2 | robust z-score, replicate 3 | Gene
-0.502 | -0.335 | -0.732 | LOC440466 (retired record)
0.276 | 0.576 | 0.149 | ANXA6
1.41 (active) | 1.93 | 2.23 | PPT1
1.96 | 1.73 | 1.4 | WDR18
0.24 | -0.0199 | -0.379 | LOC388684 (retired record)
2.43 (active) | 1.71 | 2.48 | ANKS6
-0.669 | -0.711 | -0.513 | ASIC2
-1.05 | -1.23 | -1.42 | GAS2
-1.71 | -0.384 | -0.299 | UBA2
1.36 | 1.46 | 1.34 | TMED8
-0.565 | 0.23 | -0.201 | CFAP68
0.901 | 1.09 | 2.19 | CAMK2N2
0.0328 | 0.238 | -0.0747 | LINC02898
0.631 | 0.648 | 0.213 | ZNF440
-0.272 | -1.29 | 0.259 | TRIM25
-0.602 | -0.763 | -1.27 | LCE1E
-0.0713 | 0.612 | -0.206 | CHRNB4
-0.266 | -0.518 | -1.64 | ASXL2
-0.893 | -0.932 | -1.08 | LOC440079 (retired record)
1.37 | 0.276 | 0.398 | HASPIN
0.342 | -1.51 | -0.565 | LRRC17
0.125 | -1.77 | 0.0399 | RANBP6
-0.499 | -0.759 | -0.94 | LOC387754 (retired record)
0.573 | 0.596 | 1.15 | IKZF4
-0.409 | 0.824 | -0.995 | SGCA
0.374 | -0.206 | 1.46 | PPIAP35
0.358 | 0.372 | 0.823 | FBXL13
1.74 | 1.75 | 1.19 | MRFAP1L2
-0.138 | -0.321 | -0.381 | SPESP1
-0.683 | -0.918 | -0.663 | CILP
1.66 | 0.813 | 0.493 | LOC441494 (retired record)
-1.23 | -1.61 | -1.52 | PCNX3
-0.171 | 0.249 | -0.269 | NAP1L1
-0.144 | 0.13 | 0.515 | GNAI2P2
-0.345 | -1.62 | -0.307 | SFTPD
1.08 | -0.353 | 1.01 | TMEM121B
-0.193 | 0.439 | 0.0991 | TUT7
-0.856 | -0.569 | -1.29 | BMP7
-0.988 | -0.821 | -0.745 | PPP1R37
0.0188 | 0.842 | 0.015 | DRAIC
-1 | -1.6 | -0.805 | KLHL23
1.84 | -0.16 | -0.252 | ZMAT5
0.136 | 0.947 | 0.3 | EFCAB5
1.33 | 1.3 | 1 | SLC28A1
1.14 | 1.23 | 1.42 | BMAL1
-1.71 | -0.857 | -1.3 | ACTRT2
-0.383 | 0.12 | -0.0368 | CNPY1
-2.13 (active) | -2.07 | -2.21 | VDAC3
-0.914 | -0.935 | -1.15 | ORAI1
-0.316 | -0.0584 | 0.0478 | PABIR1
1.55 | 1.95 | 1.97 | LOC285344 (retired record)
-0.344 | -0.857 | -0.781 | SPACA1
1.18 | 1.02 | 0.913 | LOC387974 (retired record)
1.44 | 1.49 | 2 | SERTM2
0.438 | 1.24 | 1.47 | RPL31P43
-0.402 | 2.29 | -0.395 | PPY
-0.367 | 2 | 1.96 | MYCNOS
1.23 | 0.0902 | 0.509 | AMPH
-0.55 | -0.342 | -0.531 | POC1B
1.32 | 0.497 | 0.363 | LOC340913 (retired record)
-0.0444 | -0.405 | -0.12 | NOD2
-0.168 | -0.251 | 0.00834 | LOC343052
-0.725 | -2.94 | -1.06 | LOC401700 (retired record)
1.25 | 1.55 | 1.16 | CYB5R5
-0.11 | -0.0863 | 0.56 | PPP1R36
-0.258 | -0.156 | -0.742 | VDAC1
-0.991 | -0.719 | -0.778 | PITPNM3
0.86 | 0.705 | 0.982 | PTRH1
-0.257 | 0.541 | 0.457 | SCARB2
-0.699 | -0.938 | -0.35 | SHISA7
0.539 | -0.967 | 0.486 | EBF1
0.169 | 1.91 | 0.413 | HERC6
0.0789 | -0.12 | 0.274 | RBM44
-0.833 | -1.21 | -0.466 | WDR54
-1.58 | 0.231 | -0.914 | MORF4
0.118 | -0.171 | 0.882 | C1orf87
-1.46 | -2.05 | -0.961 | PRSS12
-1.11 | -0.811 | -0.0652 | SRP68
-0.574 | -0.899 | -1.07 | SNAI1
-0.225 | 0.00524 | -0.0824 | DNAJB8
-0.0161 | 0.116 | 0.289 | PHACTR4
0.178 | 1.06 | 0.257 | FAM234B
-0.616 | -0.534 | -0.537 | DNAJC16
-0.533 | -0.768 | -1.14 | SLU7
0.212 | 0.349 | 0.928 | PARP3
0.483 | 0.765 | -0.814 | UBE2Q1
-0.181 | -1.44 | 0.497 | C21orf58

Targets above whose gene name starts with V or v (2):
robust z-score, replicate 1 | robust z-score, replicate 2 | robust z-score, replicate 3 | Gene
-2.13 (active) | -2.07 | -2.21 | VDAC3
-0.258 | -0.156 | -0.742 | VDAC1
